Source: paper PMC10977726
These are yes or no findings as the source states them, for the method shown. Some results given as binding are weak or reduced against the parent protein; the word gives no strength.

Chains of the proteins cited; added tags and fusions are not shown. Residues count along the entry.
UniProt P02768, residues 25-609: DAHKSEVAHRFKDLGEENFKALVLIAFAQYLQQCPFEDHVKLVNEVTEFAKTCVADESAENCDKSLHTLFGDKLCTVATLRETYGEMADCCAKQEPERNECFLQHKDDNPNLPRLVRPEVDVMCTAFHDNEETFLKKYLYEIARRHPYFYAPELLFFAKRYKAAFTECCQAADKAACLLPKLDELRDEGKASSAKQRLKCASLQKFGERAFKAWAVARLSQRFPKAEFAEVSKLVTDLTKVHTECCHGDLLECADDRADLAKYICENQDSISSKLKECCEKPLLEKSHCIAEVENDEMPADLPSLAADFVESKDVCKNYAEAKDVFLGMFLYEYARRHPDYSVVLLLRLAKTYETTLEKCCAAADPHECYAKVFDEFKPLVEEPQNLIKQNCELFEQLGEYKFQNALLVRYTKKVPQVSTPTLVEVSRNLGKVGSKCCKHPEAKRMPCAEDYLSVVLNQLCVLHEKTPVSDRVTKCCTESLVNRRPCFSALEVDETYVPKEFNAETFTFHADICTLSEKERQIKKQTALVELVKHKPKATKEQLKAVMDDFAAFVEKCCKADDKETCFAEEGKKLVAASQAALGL
UniProt P01127, residues 82-190: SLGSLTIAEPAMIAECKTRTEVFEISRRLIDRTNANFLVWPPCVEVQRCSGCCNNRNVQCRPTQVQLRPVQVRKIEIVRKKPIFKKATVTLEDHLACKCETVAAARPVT

Key:
[1] = target: human serum albumin, biotinylated (human) (UniProt P02768); test: ELISA; […], room temperature; […]; only the target purified
biotin-PDGF-bb (human) = biotin-PDGF-bb (human) (UniProt P01127); test: SPR; […]; Biacore S200, […] (PBS with 0.05% Tween 20, pH 7.4); […]; both purified

Binder | binding [1] | binding (biotin-PDGF-bb (human))
VSCTTSKECWSVCQRLHNTSKGRCDEICGCRW (designed binder) [Hs-Chr-1 displayed on M13 phage] | binds | –
VSCTTSKECWSVCQRLHNTSRGRCEEICGCSN (designed binder) [Hs-Chr-2 displayed on M13 phage] | binds | –
VSCTTSKECWSVCQRLHNTSYGTGCMRNTCYCTP (designed binder) [Hs-Chr-3 displayed on M13 phage] | binds | –
GCAFEGESCNVQFYPCCVSMKLMCIPGNPDGTCYYL (designed binder) [P-AST-3] | – | no binding (tested: >50 µM)
